Structures are written as SMILES. The list shows a part of the results. Most values lie at the level of the controls, where differences are scatter.

In one assay the target is UniProt Q15413. In words: log2 fold change of tryptic peptide abundance, ligand vs vehicle (limited proteolysis) (log2 ratio); higher = more trypsin-susceptible (destabilized). As to conditions: peptide sequence: MAPLYNLPR; peptide start residue: 3605; ligand concentration: 5 uM; sample: K562 cleared lysate.
The target of the next assay is UniProt Q16445. Described as above. The conditions noted are these: peptide sequence: LRPGFGGAVTEVK; peptide start residue: 47; ligand concentration: 5 uM; sample: K562 cleared lysate.

Consider `Cc1nc(Nc2ncc(C(=O)Nc3c(C)cccc3Cl)s2)cc(N2CCN(CCO)CC2)n1` [dasatinib], for which the log2 fold change was -0.0605 in the assay with UniProt Q15413 and -0.118 in the assay with UniProt Q16445.

Values taken from the supplement of paper PMC12819154, “High-throughput peptide-centric local stability assay extends protein–ligand identification to membrane proteins, tissues and bacteria” (Nature Structural & Molecular Biology, 2025).
